Results are given in words; binding and its absence hold for the method and conditions named. In cells and extracts the contact can be indirect. Some binding calls cover weakened binding; strength is not graded here.
Biological target: endogenous CD3ϵ of primary mouse CD3+ T cells (mouse (endogenous in primary CD3+ T cells)) (UniProt P22646)
Experiment: co-IP; endogenous proteins; lysate of primary mouse CD3+ T cells immunoprecipitated with rat anti-CD3ϵ antibody, rat IgG as control; immunoblot

By UniProt entry, the sequences of proteins in these tests, tags left out. Residues count along the entry.
UniProt P22646, residues 22-189: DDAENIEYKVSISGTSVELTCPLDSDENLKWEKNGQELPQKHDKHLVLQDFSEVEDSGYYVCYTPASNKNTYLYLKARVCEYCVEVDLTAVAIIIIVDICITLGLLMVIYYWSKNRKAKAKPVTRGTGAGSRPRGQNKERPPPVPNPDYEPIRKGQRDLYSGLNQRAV

binding: binds
B1: endogenous CCDC134 of primary mouse CD3+ T cells (protein, UniProt Q8C7V8 23-229)
chain: ALKSTLDPSLKIYKKMFEVKRREQLLALKNLAQLNDIHQQYKILDVMLKGLFKVLEDSRTVLIAADVLPDGPVPQDEKLKDAFSHVVENTAFFGDVVLRFPKIVHHYFDHNSNWNLLIRWGISFCNQTGVFDQGPHSPILSLMAQELGITEKDSDFRNPFKTDQTEFIPSTDPFQKALREEEKRRKKEERRKEIRKGPRISRSQSEL

Reference: paper PMC10206301
